These results are taken from PubChem BioAssay AID2685 (National Center for Advancing Translational Sciences (NCATS), 2010).

The experiment can be described thus: qHTS Assay for Lipid Storage Modulators in Drosophila S3 Cells.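 On cell number change: cells counted by Cell Tracker Red CMTPX staining in the red channel.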 The following applies: BODIPY lipid droplet fluorescence, 18-24 h; for cell number change: measured here: cell count max response, cells fed with added oleic acid. A digest of the protocol: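 Drosophila S3 cells loaded with oleic acid (400 uM, as added) and compounds at several concentrations; lipid droplets imaged by 488-nm laser-scanning cytometry, 500–530 nm intensity and object ratio to cell channel. Percent activity normalized to 20 uM Triacsin C.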

Setting [1] is: measured here: lipid fluorescence (Fed channel) AC50, cells fed with added oleic acid.
Setting [2] is: measured here: cell number channel AC50, cells fed with added oleic acid.

SMILES strings stand for the structures. This is one part of the list. Shown are side measurements of this screen, not its main read-out; they come without a call. Compounds called inactive in the main read-out are mostly missing here. Words in brackets tell the shape of the fitted curve; partial curves, single points and poor fits give uncertain potencies.

`COc1ccc(-c2nc(NC(C)=O)sc2-c2ccccc2)cc1`: the cell number change came to 120%.

Take `O=[N+]([O-])c1cc([N+](=O)[O-])c2nonc2c1Nc1ccc(O)cc1`: the cell number change is -22.3%. Further, under setting [1], the AC50 was 6.51 µM [rising, full curve, poor fit].

For the compound `O=C(NC1CCCCCC1)c1cc(-c2ccccn2)nc2ccccc12`, the cell number change was determined as 35.5%. Further, the AC50 under setting [2] is 0.146 µM [rising, partial curve, poor fit]. In addition, the AC50 under setting [1] is 0.731 µM [rising, full curve, poor fit].

As to `CCOc1ccc(N(C)S(=O)(=O)c2ccc3[nH]cc(C(=O)NCC4CCCO4)c(=O)c3c2)cc1` (centres undefined), under setting [2], the AC50 was 0.092 µM [rising, full curve, poor fit].

Regarding `Cc1ccc(N2CC(C(=O)Nc3nnc(SCCC4OCCO4)s3)CC2=O)cc1` (centres undefined), the cell number change turned out to be 33%. Moreover, under setting [2], the AC50 was 8.91 µM [rising, partial curve, poor fit].

Consider `Oc1ccc(Br)cc1CNc1cnc2ccccc2c1`, for which the cell number change was -22.6%. Under setting [1], the AC50 was 14.6 µM [rising, partial curve].

As to `COc1cc(C)c(Cl)cc1S(=O)(=O)n1ccnc1`, the cell number change was -49.7%.

For the compound `COC(=O)c1ccc(CSc2n[nH]c(=S)s2)o1`, the cell number change was 12.5%.

In the case of `COc1ccc(CCNC(=O)CSc2n[nH]c(C)c2[N+](=O)[O-])cc1OC`, the AC50 under setting [1] was 29.1 µM [rising, single point].

For the compound `N#CCCN(C(=O)COC(=O)COc1ccccc1Cc1ccccc1)c1ccccc1`, the cell number change was 2.18%. In addition, the AC50 under setting [1] was 4.11 µM [rising, single point].

Regarding `CCOc1ccc(NC(=O)c2ccc(NC(=O)CN3C(=O)C(=O)N(CC(C)C)C3=O)cc2)cc1`, the AC50 under setting [1] was 0.82 µM [falling, single point].

For the compound `C/C(=N\N=C(N)N)c1ccc(Cl)c(Cl)c1`, the cell number change was 46.2%. The AC50 under setting [2] was 0.116 µM [rising, full curve, poor fit]. Moreover, the AC50 under setting [1] is 32.6 µM [rising, partial curve, poor fit].

With `Cc1ccc(NC(=O)CCn2nc(C)cc2C)c(C)c1`, the cell number change was 10.8%. Also, the AC50 under setting [1] was 0.206 µM [rising, partial curve].

With `N#Cc1ccc(NC(=O)c2cc(S(=O)(=O)N3CCOCC3)ccc2N2CCCC2)cc1`, the cell number change is -20%.

Consider `CC(C)CCNC(=O)CN(C(=O)CCC(=O)Nc1nccs1)C1CCCCC1`, for which the AC50 under setting [1] is 1.16 µM [falling, partial curve].

Regarding `Cc1cc(Nc2cc(F)ccc2C)n2nc(C)nc2n1`, the cell number change stood at 6.16%. Also, under setting [2], the AC50 is 0.651 µM [rising, partial curve, poor fit].

Turning to `COc1ccc(/C=N/NC(=O)c2cccc(COCC(F)(F)C(F)F)c2)cc1`, the cell number change came out at 30.7%. In addition, the AC50 under setting [2] was 8.2 µM [rising, partial curve]. Under setting [1], the AC50 is 10.3 µM [rising, partial curve].

For the compound `CCOC(=O)c1csc(NC(=O)c2ccc(S(=O)(=O)N(C)C)cc2)n1`, the cell number change is -9.35%. In addition, under setting [1], the AC50 is 0.206 µM [rising, partial curve, poor fit].

As to `CC1CN(C(=S)SCC(=O)c2ccc([N+](=O)[O-])cc2)CC(C)O1` (centres undefined), the cell number change stood at 3.95%.

Consider `COCCn1cnc2c1c(=O)n(CC#N)c(=O)n2Cc1ccccc1`, for which the cell number change was 12.8%. Besides, the AC50 under setting [1] was 0.116 µM [falling, partial curve, poor fit].

Take `O=C(Nc1ccccc1Oc1cccnc1)C1CCCN(C/C=C/c2ccc(F)cc2)C1` (centres undefined): the cell number change is -14.9%. For the same compound, the AC50 under setting [2] was 1.64 µM [rising, partial curve]. Besides, the AC50 under setting [1] was 29.1 µM [falling, single point].

Turning to `CCOC(=O)c1ccc(NC(=O)c2ccc[n+]([O-])c2)cc1`, the AC50 by setting is: under setting [2], 6.51 µM [rising, single point]; under setting [1], 0.731 µM [rising, partial curve].

In the case of `CN(Cc1ccc(OC(F)F)cc1)Cc1nc2c(Br)cc(Br)cc2c(=O)[nH]1`, the cell number change amounted to 7.88%. Also, the AC50 under setting [1] is 4.11 µM [rising, single point].

Regarding `Cc1cc(=O)oc2cc(OCC(=O)NCCCN3CCOCC3)ccc12`, the cell number change is -10.8%. For the same compound, the AC50 under setting [1] is 1.16 µM [falling, partial curve].

In the case of `Cc1oc(-c2ccc(Cl)cc2)nc1CN1CCCC(C(=O)NCc2ccccn2)C1` (centres undefined), the cell number change was -2.52%. Also, under setting [2], the AC50 was 0.00461 µM [falling, full curve, poor fit].

Turning to `O=C(CN(Cc1ccco1)S(=O)(=O)c1cccs1)Nc1ccccc1C(F)(F)F`, the cell number change was -11.3%. Further, the AC50 under setting [1] is 2.06 µM [falling, partial curve].

`CCCOC(=O)CSC1=C(C#N)C(c2ccccc2OC)C(C#N)C(=O)N1` (centres undefined): the cell number change came out at 8.14%.

As to `CC(C)Oc1ccccc1C1CC(=O)Nc2cc3c(cc21)OCCO3` (centres undefined), the cell number change is -37.2%. In addition, the AC50 under setting [2] was 0.92 µM [falling, partial curve, poor fit].

Turning to `CCOC(=O)c1ccc(-c2c(-c3cc(OC)c(OC)c(OC)c3)noc2C)cc1F`, the cell number change was -5.09%. In addition, the AC50 under setting [1] is 20.6 µM [rising, single point].

Take `COc1ccc(NC(C)C(=O)N/N=C/c2ccccc2OCc2ccc(Br)cc2)cc1` (centres undefined): the cell number change was -35.4%. The AC50 under setting [2] is 6.51 µM [falling, partial curve]. Besides, the AC50 under setting [1] is 5.17 µM [falling, partial curve].

Consider `COc1cc(S(=O)(=O)N2CCN(C(=O)c3ccccc3)CC2)c(OC)cc1Br`, for which the AC50 under setting [1] is 6.51 µM [rising, single point].

`O=C(NC(=S)NC1C2CC3CC(C2)CC1C3)c1ccccc1` (centres undefined): the cell number change worked out at 63.7%. Besides, under setting [2], the AC50 is 20.6 µM [rising, partial curve]. Besides, under setting [1], the AC50 is 16.4 µM [rising, partial curve].

As for `C/C(CCC1CC(C)OC1=O)=N/Nc1nc(-c2ccccc2)cs1` (centres undefined), the cell number change stood at 19.4%. For the same compound, the AC50 under setting [2] was 1.64 µM [rising, partial curve, poor fit]. Moreover, the AC50 under setting [1] is 0.326 µM [rising, full curve].

As to `CC(=O)Nc1cccc(C(=O)OCC(=O)Nc2ccc(Cl)cn2)c1`, under setting [1], the AC50 was 0.651 µM [falling, single point].

On to `COc1ccc(OC)c(S(=O)(=O)N(C)CC(=O)Nc2ccccc2OC)c1`, for which the cell number change worked out at 22.1%. Further, under setting [1], the AC50 was 2.91 µM [rising, full curve].

With `CC(Nc1cc(=O)n(C)c(=O)[nH]1)c1ccccc1` (centres undefined), the cell number change was -0.146%.

Take `Cc1cccc(C)c1OCc1cc(C(=O)NCc2cn(C)nc2C)no1`: the cell number change amounted to 53.4%. The AC50 under setting [2] is 15.8 µM [rising, partial curve]. In addition, under setting [1], the AC50 is 22.4 µM [rising, partial curve].

In the case of `O=C1/C(=C/c2ccc(O)c(O)c2)Oc2cc(O)ccc21`, the cell number change was -60.3%. Besides, the AC50 under setting [2] was 29.1 µM [falling, single point]. For the same compound, the AC50 under setting [1] was 29.1 µM [falling, single point].

On to `Cc1cc(C)c(C#N)c(SCC(=O)Nc2ccccc2C(N)=O)n1`, for which the cell number change is -14.9%. For the same compound, the AC50 under setting [1] was 29.1 µM [falling, single point].

Turning to `Cc1ccc(C(=O)/C=C/c2cc(C#N)n(C)c2C)cc1`, the cell number change was 12.4%.

Take `Nc1ncc(-c2ccccc2)c(-c2ccc(O)cc2O)n1`: the cell number change was -10.3%. In addition, under setting [1], the AC50 is 0.731 µM [rising, partial curve].

With `Nc1cc([N+](=O)[O-])ccc1Nc1ccccc1`, the cell number change is -26.4%. In addition, the AC50 under setting [1] was 0.116 µM [falling, full curve, poor fit].

As for `CC(Oc1ccc2c(c1)oc(=O)c1ccccc12)C(=O)NCCCN1CCOCC1` (centres undefined), the AC50 under setting [1] is 29.1 µM [rising, single point].

`COc1ccc(OCC(=O)N/N=C(\C)CC(=O)Nc2cccc([N+](=O)[O-])c2)cc1`: the cell number change is -2.04%.

Regarding `O=C(NCC(=O)N(CCc1ccccc1)C(C(=O)NC1CCCCC1)c1ccncc1)c1ccco1` (centres undefined), the cell number change is -5.49%.

Consider `COCCNC(=O)C(=O)NCC1OCCN1S(=O)(=O)c1ccc(F)cc1` (centres undefined), for which the AC50 under setting [1] is 13 µM [rising, partial curve].

In the case of `O=C(O)[C@H](Cc1ccccc1)NC(=O)N1CCN(c2cccc(C(F)(F)F)c2)CC1`, the cell number change is -16.6%.

Regarding `O=S(=O)(Nc1cc2nc3ccccc3nc2n1Cc1ccccc1)c1ccc(Cl)cc1`, the cell number change is -0.833%. For the same compound, the AC50 under setting [1] is 18.4 µM [falling, partial curve].

Regarding `CCC1CCCCN1CCCNC(=O)c1ccc2c(c1)NC(=O)CN2C` (centres undefined), the cell number change was -32.1%. Moreover, the AC50 under setting [2] was 25.9 µM [falling, single point].

Take `CC(=O)c1ccc(NC(=O)CSc2nccn2CCc2ccccc2)cc1`: the cell number change is 13.3%.

Regarding `O=S(=O)([N-]c1nc2ccccc2nc1-n1cc[n+](Cc2ccccc2)c1)c1ccccc1`, the AC50 reads like this: under setting [2], 4.11 µM [rising, partial curve, poor fit]; under setting [1], 0.259 µM [rising, full curve].

Consider `CCCCCCCNC(=O)C1(CC2CC(c3ccc(Cl)cc3)=NO2)CCN(C(=O)c2cc(OCC)c(OCC)c(OCC)c2)CC1` (centres undefined), for which the cell number change worked out at 48.9%. Under setting [2], the AC50 is 25.9 µM [rising, partial curve].

Turning to `CCN(CC(=O)Nc1ccc(N2CCOCC2)cc1)C(=O)COc1ccccc1OC`, the cell number change was 108%.

On to `Cc1cc(NC(=O)COC(=O)CCNS(=O)(=O)c2cccc(C(F)(F)F)c2)no1`, for which the cell number change is 29.1%.

As to `COc1cc(CNC(C)c2ccccc2)c(Br)cc1OCC(N)=O` (centres undefined), the cell number change was -26.6%. Moreover, the AC50 under setting [1] is 6.51 µM [falling, single point].

Turning to `O=C(Cn1c(NCCO)nc2ccccc21)c1ccc(F)cc1`, the cell number change was -4.67%. The AC50 under setting [1] is 6.51 µM [rising, single point].

As for `C=CCSC1=N/C(=C\C=C\c2ccco2)C(=O)S1`, the cell number change was 1.88%.

As to `COC(=O)c1cc2c(s1)-c1cc(F)ccc1OC2`, the cell number change was determined as 22%. The AC50 under setting [1] is 25.9 µM [rising, single point].

Turning to `Cc1nnc(SCC(=O)NC(C)(C)C)n1NCc1cccc(Br)c1`, the cell number change is -6.32%. Also, the AC50 under setting [1] was 0.0291 µM [rising, full curve].

For `O=C(Cc1ccc(-n2c(=S)[nH]c3ccccc3c2=O)cc1)N1CCC(N2CCCCC2)CC1`, the cell number change was found to be 14.4%. Besides, the AC50 under setting [1] is 6.51 µM [falling, single point].

For `COc1ccc(N(CC(=O)NCCc2ccccc2)C(=O)CCC(=O)Nc2nccs2)c(OC)c1`, the cell number change is -9.52%.

On to `CCC1CN(C(=O)N2CCC(C(=O)NCc3cccc(F)c3)CC2)c2ccccc2O1` (centres undefined), for which the cell number change is -8.85%. Also, under setting [1], the AC50 is 0.13 µM [rising, full curve, poor fit].

What is called AC50 is the concentration at which the activity in the assay is half-maximal. Low readings indicate greater potency, high ones weaker potency.
